# Laboratory results: the supplement of paper PMC7666118
# Sequences of proteins named here, by UniProt entry; tags and fusion partners are left off. A change or cut given only in a name is not applied to a line headed by its entry.
# UniProt Q05519: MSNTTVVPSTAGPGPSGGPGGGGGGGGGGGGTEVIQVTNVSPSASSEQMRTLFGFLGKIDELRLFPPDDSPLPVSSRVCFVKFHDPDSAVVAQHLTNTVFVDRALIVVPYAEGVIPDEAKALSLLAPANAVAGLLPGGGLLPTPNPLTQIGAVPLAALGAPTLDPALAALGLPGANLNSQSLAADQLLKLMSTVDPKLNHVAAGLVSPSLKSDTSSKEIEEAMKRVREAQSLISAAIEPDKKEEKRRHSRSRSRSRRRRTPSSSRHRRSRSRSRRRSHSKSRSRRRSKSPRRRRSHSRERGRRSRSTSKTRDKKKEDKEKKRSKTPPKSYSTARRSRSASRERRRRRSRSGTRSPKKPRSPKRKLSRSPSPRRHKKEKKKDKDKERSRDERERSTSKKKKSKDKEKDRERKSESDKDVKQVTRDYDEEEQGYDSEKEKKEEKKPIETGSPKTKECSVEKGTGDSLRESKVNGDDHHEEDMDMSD
# UniProt Q7L8J4: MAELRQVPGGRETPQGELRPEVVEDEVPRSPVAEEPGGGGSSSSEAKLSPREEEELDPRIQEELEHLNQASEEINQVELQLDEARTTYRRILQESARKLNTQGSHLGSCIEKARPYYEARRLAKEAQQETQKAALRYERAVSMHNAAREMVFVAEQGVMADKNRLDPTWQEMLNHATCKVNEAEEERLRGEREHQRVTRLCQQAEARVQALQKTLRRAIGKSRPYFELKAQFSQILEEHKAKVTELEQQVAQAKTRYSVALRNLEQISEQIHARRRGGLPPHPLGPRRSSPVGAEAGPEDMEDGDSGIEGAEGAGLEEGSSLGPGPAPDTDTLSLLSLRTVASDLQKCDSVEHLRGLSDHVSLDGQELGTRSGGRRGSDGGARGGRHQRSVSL
# UniProt Q9NZC9: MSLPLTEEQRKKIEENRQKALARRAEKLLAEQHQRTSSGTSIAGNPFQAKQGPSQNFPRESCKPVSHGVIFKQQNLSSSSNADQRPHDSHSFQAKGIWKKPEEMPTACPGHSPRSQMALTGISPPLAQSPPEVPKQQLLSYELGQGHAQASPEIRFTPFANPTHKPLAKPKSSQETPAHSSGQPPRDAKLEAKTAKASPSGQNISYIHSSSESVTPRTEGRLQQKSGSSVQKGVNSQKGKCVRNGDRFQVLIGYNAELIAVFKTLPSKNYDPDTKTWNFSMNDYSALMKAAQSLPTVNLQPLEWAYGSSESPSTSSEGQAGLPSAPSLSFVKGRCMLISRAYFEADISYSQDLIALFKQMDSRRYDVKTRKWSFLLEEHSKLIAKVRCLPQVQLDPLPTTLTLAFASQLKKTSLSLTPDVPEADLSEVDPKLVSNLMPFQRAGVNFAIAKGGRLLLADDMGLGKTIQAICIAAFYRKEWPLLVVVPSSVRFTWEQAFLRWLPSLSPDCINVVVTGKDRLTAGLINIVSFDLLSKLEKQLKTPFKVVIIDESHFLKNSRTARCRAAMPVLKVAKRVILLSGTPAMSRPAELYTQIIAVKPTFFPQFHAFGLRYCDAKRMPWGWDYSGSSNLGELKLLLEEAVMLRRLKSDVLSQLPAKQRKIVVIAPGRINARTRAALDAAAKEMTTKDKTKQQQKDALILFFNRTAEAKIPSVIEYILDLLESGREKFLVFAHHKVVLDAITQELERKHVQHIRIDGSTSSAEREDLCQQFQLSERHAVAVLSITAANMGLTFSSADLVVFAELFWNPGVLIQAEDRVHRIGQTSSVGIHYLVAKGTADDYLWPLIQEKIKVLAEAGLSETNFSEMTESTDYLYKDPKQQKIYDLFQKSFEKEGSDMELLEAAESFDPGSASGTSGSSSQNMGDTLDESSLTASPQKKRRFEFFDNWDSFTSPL
# UniProt Q7KZF4: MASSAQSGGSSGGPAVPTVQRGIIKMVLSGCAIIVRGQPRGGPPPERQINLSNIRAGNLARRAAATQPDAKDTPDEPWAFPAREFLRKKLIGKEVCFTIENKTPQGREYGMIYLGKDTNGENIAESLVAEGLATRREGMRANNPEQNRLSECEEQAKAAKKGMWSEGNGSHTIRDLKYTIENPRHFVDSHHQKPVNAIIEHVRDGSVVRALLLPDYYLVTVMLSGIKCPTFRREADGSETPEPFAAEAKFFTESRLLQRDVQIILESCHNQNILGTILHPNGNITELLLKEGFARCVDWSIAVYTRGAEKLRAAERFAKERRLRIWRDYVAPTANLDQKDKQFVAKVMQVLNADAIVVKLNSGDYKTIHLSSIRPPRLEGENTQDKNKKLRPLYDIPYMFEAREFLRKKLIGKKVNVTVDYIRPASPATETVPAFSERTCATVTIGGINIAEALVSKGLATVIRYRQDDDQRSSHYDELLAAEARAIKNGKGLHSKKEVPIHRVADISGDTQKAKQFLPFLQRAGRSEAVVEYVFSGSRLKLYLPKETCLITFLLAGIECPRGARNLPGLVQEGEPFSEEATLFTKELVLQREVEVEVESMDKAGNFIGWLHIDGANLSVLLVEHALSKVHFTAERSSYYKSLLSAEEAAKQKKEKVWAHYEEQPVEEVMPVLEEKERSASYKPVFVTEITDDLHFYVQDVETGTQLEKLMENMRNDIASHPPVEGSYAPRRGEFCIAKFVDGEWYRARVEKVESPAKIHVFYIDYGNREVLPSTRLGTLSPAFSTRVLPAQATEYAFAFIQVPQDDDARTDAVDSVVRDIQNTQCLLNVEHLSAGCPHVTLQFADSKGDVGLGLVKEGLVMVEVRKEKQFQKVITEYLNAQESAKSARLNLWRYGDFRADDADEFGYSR
# UniProt P48067: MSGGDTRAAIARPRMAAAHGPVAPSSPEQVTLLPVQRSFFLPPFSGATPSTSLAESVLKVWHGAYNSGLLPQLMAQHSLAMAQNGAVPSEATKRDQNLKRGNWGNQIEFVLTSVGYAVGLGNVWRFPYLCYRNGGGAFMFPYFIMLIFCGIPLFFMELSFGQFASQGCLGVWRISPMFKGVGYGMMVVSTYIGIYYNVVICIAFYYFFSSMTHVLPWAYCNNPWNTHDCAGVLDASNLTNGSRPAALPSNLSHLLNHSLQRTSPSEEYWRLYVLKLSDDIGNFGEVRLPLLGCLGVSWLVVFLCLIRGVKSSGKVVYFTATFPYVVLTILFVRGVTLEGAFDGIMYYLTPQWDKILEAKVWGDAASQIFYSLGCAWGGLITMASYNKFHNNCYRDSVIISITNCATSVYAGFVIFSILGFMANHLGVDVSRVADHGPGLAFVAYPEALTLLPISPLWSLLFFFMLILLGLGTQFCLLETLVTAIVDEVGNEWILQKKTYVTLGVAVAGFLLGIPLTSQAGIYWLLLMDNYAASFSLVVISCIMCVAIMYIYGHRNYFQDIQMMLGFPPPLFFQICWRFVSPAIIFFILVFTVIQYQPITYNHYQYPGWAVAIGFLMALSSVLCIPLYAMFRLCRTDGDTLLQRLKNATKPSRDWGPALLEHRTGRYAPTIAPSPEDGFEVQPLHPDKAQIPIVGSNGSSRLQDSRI
# UniProt Q14493, whole entry, looked up: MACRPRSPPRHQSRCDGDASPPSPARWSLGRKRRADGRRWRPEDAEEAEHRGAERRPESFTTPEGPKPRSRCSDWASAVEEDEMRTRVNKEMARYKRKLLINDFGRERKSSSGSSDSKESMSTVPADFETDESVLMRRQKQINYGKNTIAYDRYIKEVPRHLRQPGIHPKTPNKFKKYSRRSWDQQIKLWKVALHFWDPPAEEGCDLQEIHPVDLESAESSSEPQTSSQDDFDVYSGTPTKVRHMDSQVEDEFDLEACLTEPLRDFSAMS
# UniProt Q92925, whole entry: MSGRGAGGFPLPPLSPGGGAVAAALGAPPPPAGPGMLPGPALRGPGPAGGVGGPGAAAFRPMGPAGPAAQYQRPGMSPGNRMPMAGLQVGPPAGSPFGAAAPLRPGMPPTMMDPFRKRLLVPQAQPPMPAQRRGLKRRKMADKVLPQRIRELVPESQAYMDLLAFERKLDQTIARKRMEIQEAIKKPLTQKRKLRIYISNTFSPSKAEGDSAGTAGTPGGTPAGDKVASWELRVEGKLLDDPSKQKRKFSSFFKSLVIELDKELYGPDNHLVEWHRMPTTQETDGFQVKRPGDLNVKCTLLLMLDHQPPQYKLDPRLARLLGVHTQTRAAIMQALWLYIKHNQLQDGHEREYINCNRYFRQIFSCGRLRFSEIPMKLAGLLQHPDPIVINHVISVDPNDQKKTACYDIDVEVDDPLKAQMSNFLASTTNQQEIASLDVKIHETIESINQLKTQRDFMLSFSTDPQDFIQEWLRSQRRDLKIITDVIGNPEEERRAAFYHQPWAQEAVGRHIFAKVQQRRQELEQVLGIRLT
# UniProt Q9C0K1: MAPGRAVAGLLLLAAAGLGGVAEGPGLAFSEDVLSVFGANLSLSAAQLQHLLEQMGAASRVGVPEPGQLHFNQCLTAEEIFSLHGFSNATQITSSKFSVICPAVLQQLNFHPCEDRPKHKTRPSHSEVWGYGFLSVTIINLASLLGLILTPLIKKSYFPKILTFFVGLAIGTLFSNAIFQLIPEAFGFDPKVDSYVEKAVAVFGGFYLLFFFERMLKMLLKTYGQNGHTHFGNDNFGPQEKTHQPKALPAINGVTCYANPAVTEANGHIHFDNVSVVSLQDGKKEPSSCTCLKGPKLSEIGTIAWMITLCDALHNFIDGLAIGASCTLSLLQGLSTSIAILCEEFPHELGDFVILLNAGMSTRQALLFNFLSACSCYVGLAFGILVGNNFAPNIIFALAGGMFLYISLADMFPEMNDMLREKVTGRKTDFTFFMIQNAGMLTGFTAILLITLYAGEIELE
# UniProt Q8TBP6: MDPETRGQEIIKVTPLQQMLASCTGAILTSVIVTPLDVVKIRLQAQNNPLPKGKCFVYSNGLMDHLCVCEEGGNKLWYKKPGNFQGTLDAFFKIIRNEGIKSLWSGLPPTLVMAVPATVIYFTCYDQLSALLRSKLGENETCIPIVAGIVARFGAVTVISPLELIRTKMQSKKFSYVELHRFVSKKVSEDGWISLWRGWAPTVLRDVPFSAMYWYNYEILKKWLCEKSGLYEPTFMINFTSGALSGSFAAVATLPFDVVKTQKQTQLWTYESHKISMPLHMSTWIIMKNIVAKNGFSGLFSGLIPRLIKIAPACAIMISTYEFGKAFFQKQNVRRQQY
# UniProt P04920: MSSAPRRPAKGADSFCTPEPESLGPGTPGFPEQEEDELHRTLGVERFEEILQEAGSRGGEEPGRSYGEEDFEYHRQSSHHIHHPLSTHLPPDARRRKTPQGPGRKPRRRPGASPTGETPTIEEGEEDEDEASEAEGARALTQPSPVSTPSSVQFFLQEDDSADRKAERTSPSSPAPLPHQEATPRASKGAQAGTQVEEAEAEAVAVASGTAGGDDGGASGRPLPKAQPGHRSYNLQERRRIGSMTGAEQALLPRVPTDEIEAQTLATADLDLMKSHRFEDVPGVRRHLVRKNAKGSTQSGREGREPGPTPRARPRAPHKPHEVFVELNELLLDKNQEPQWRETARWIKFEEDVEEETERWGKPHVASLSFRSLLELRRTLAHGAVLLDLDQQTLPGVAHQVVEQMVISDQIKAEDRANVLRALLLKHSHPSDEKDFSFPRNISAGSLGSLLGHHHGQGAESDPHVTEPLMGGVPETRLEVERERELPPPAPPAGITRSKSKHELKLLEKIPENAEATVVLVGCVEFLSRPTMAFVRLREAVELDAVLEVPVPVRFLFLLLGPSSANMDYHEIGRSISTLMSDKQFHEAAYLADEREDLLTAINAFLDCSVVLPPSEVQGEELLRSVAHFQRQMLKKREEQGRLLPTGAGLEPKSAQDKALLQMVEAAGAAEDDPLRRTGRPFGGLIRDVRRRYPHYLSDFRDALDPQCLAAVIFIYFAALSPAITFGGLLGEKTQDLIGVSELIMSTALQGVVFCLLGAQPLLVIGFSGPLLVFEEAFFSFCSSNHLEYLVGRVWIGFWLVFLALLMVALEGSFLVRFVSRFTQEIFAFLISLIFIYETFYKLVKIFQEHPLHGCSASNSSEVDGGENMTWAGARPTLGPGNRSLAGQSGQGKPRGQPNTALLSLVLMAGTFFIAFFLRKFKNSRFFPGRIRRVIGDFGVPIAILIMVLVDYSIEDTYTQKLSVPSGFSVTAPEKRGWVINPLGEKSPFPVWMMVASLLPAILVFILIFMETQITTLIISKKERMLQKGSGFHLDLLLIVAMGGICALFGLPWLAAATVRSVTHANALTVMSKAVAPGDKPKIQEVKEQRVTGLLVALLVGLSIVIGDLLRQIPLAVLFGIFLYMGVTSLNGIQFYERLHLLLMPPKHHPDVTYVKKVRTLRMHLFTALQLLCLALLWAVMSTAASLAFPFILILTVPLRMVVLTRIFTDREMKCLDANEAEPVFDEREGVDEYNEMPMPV
# UniProt Q8WVK2: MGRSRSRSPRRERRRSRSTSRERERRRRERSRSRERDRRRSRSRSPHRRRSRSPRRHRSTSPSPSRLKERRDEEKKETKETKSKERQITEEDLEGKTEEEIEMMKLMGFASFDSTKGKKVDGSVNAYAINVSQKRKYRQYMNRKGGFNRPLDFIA
# UniProt Q9H299: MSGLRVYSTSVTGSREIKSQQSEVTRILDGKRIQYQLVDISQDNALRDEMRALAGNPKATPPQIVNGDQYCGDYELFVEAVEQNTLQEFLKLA
# This is one part of the list.
# Compound: COc1ccc(Cn2ccc3cc(C)c(C(=O)NO)cc32)cc1
# Assay: dose-dependent thermal stabilisation call (2D-TPP, DLPTP, 10% FDR) (binary (1 = stabilised)); higher = stabilised by the compound
# Settings: system: HL-60 intact cells; concentration range 0.04-10 µM
# Description: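 2D thermal proteome profiling in intact HL-60 cells treated with BRD-3811 (0, 0.04, 0.29, 2, 10 uM) for 90 min at 37 C, then heated 3 min at one of 12 temperatures (42-63.9 C). Soluble protein was quantified by TMT10 MS. The value is the DLPTP call of the paper: dose-dependent thermal stabilisation over all temperatures at 10% FDR (F-test of a dose-response against a flat model); one experiment, one call per tested protein.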
row,Target,dose-dependent thermal stabilisation call
1,SFRS11 (UniProt Q05519),inactive: 0
2,SLC35E1 (UniProt Q96K37),inactive: 0
3,SHPK (UniProt Q9UHJ6),inactive: 0
4,SLC39A7 (UniProt Q92504),inactive: 0
5,SH3BP5L (UniProt Q7L8J4),inactive: 0
6,SMARCAL1 (UniProt Q9NZC9),inactive: 0
7,SND1 (UniProt Q7KZF4),inactive: 0
8,SLMO2 (UniProt Q9Y3B1),inactive: 0
9,SLC35D1 (UniProt Q9NTN3),inactive: 0
10,SLC6A9 (UniProt P48067),inactive: 0
11,SLC25A11 (UniProt Q02978),inactive: 0
12,SLC1A5 (UniProt Q15758),inactive: 0
13,SGMS2 (UniProt Q8NHU3),inactive: 0
14,SLBP (UniProt Q14493),inactive: 0
15,SH3GLB1 (UniProt Q9Y371),inactive: 0
16,SOD1 (UniProt P00441),inactive: 0
17,SFRS18 (UniProt Q8TF01),inactive: 0
18,SNX27 (UniProt Q96L92),inactive: 0

row,Target,dose-dependent thermal stabilisation call
1,SMARCD2 (UniProt Q92925),inactive: 0
2,SLC39A8 (UniProt Q9C0K1),inactive: 0
3,SNRNP70 (UniProt P08621),inactive: 0
4,SH3GLB2 (UniProt Q9NR46),inactive: 0
5,SLC25A40 (UniProt Q8TBP6),inactive: 0
6,SLC35A5 (UniProt Q9BS91),inactive: 0
7,SLC38A1 (UniProt Q9H2H9),inactive: 0
8,SLC4A7 (UniProt Q9Y6M7),inactive: 0
9,SLC4A2 (UniProt P04920),inactive: 0
10,SFRS2 (UniProt Q01130),inactive: 0
11,SH3KBP1 (UniProt Q96B97),inactive: 0
12,SMAD3 (UniProt P84022),inactive: 0
13,SLC25A30 (UniProt Q5SVS4),inactive: 0
14,SF3B4 (UniProt Q15427),inactive: 0
15,SNRNP27 (UniProt Q8WVK2),inactive: 0
16,SMARCA4 (UniProt P51532),inactive: 0
17,SH3BGRL3 (UniProt Q9H299),inactive: 0

# In another format: results already given.
row	Target	dose-dependent thermal stabilisation call
14	SLBP (UniProt Q14493)	inactive: 0
15	SH3GLB1 (UniProt Q9Y371)	inactive: 0
16	SOD1 (UniProt P00441)	inactive: 0
17	SFRS18 (UniProt Q8TF01)	inactive: 0
18	SNX27 (UniProt Q96L92)	inactive: 0
1	SMARCD2 (UniProt Q92925)	inactive: 0
2	SLC39A8 (UniProt Q9C0K1)	inactive: 0
3	SNRNP70 (UniProt P08621)	inactive: 0
4	SH3GLB2 (UniProt Q9NR46)	inactive: 0
